Test results as given in publication PMC8876557.
No constants are given. Whether binding was seen depends on the method and setting. In cells and extracts the contact can be indirect. Some entries that bind do so weakly or less than the wild type.

Amino acid sequences for entries named in this document (tags omitted).
UniProt P35226: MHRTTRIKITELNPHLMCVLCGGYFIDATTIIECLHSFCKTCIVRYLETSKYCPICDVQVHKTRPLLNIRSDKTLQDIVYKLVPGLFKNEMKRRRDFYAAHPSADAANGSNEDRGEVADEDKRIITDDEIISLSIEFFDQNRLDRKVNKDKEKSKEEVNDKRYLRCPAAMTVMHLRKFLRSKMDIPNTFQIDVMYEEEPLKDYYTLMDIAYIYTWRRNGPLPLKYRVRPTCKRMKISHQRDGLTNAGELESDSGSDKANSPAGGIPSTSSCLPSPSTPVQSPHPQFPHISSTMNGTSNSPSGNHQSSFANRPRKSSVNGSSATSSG

Compound: B lymphoma Mo-MLV insertion region 1 homolog (human (endogenous in SNUC4)) (UniProt P35226)
Experiment: co-IP; SNUC4 cells (actively growing, 10% FBS) lysed in RIPA buffer with proteinase and phosphatase inhibitors; lysates precleared with magnetic protein G beads, incubated with 2 ug anti-BMI1 antibody overnight; IgG as negative control; ZNF277 and BMI1 detected by immunoblot

binding: binds
B1: Zinc finger protein 277 (protein, UniProt Q9NRM2 1-450)
chain: MAASKTQGAVARMQEDRDGSCSTVGGVGYGDSKDCILEPLSLPESPGGTTTLEGSPSVPCIFCEEHFPVAEQDKLLKHMIIEHKIVIADVKLVADFQRYILYWRKRFTEQPITDFCSVIRINSTAPFEEQENYFLLCDVLPEDRILREELQKQRLREILEQQQQERNDTNFHGVCMFCNEEFLGNRSVILNHMAREHAFNIGLPDNIVNCNEFLCTLQKKLDNLQCLYCEKTFRDKNTLKDHMRKKQHRKINPKNREYDRFYVINYLELGKSWEEVQLEDDRELLDHQEDDWSDWEEHPASAVCLFCEKQAETIEKLYVHMEDAHEFDLLKIKSELGLNFYQQVKLVNFIRRQVHQCRCYGCHVKFKSKADLRTHMEETKHTSLLPDRKTWDQLEYYFPTYENDTLLCTLSDSESDLTAQEQNENVPIISEDTSKLYALKQSSILNQLLL
